These are yes or no findings as the source states them, for the method shown. Binding seen in cells or lysates may run through a third protein. Some binding calls cover weakened binding; strength is not graded here.
Target: CHRNA3 (nicotinic acetylcholine receptor α3 subunit) (human (endogenous in HBO cells)) (UniProt P32297)
Test: co-IP; 2 μg AChRα3 antibody on Protein A/G-plus agarose, incubated with 1 mg HBO whole cell extract (modified RIPA buffer: 50 mM Tris-Cl pH 7.4, 1% Nonidet P-40, 150 mM NaCl, 1 mM EDTA) overnight at 4°C; beads washed three times with RIPA buffer; Western blot; IgG as negative control

Sequences of proteins named here, by UniProt entry; tags and fusion partners are left off. Residues count along the entry.
UniProt P32297, residues 32-505: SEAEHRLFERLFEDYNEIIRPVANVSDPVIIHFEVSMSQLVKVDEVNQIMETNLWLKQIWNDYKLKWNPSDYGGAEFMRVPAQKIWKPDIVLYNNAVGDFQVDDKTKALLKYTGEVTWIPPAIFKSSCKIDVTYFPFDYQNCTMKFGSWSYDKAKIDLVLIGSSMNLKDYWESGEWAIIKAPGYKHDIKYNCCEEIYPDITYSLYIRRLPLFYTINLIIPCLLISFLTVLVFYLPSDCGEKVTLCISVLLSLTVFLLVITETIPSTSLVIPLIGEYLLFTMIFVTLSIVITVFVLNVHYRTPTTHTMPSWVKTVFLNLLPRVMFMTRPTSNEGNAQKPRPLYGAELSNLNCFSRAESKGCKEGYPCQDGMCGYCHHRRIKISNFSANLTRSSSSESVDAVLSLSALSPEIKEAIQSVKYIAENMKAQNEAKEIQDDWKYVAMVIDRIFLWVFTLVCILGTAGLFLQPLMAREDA
UniProt P30532, residues 23-468: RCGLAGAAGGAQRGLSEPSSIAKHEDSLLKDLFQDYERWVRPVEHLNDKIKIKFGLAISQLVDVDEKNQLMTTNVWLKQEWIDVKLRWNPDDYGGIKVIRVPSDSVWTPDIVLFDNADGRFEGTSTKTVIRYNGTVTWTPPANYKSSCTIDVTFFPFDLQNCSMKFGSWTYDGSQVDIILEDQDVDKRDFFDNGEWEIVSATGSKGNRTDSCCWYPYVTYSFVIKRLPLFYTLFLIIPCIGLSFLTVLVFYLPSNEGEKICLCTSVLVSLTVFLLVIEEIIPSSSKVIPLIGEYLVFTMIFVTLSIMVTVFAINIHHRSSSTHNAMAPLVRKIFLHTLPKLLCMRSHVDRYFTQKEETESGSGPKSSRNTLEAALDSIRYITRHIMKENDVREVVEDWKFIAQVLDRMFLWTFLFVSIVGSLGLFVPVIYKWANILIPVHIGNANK
UniProt P30926, residues 22-498: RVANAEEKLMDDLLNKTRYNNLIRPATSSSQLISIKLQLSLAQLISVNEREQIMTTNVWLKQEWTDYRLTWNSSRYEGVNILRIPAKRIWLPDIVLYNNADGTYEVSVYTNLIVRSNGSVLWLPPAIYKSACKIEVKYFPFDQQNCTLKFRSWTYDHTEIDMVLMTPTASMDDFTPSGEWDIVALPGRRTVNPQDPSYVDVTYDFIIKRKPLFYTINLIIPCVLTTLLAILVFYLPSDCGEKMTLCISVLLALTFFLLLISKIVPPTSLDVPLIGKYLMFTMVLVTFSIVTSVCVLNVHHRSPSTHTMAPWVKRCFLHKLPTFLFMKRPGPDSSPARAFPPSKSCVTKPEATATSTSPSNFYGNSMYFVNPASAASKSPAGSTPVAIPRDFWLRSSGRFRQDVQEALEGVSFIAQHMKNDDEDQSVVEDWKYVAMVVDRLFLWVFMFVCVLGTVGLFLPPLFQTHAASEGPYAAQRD

binding | Substance
binds | CHRNA5 (nicotinic acetylcholine receptor α5 subunit) (from UniProt P30532 23-468)
binds | CHRNB4 (nicotinic acetylcholine receptor β4 subunit) (from UniProt P30926-1 22-498)

Reference: paper PMC5841828
